# The supplement of paper PMC8728848
# This is one part of the list.
# How the values were obtained:
# Assay in all cases: glycan array binding signal (z-score within array); higher = stronger binding
# Conditions in all cases: glycan notation: IUPAC condensed, linker removed
# [1] = molecular target: Fuc(a1-2)Gal
# Outline: (§1)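 Glycan array binding is given as a within-array Z-score, which can be read as non-binding when negative. The arrays, 3228 of them, came from the Consortium for Functional Glycomics database and were retained only where the protein sequence was available. Z-scores were averaged across arrays of the same protein sequence at different concentrations or buffers and across linkers.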
# [2] = molecular target: Fuc(a1-2)Gal(b1-3)GalNAc
# Outline: as §1
# [3] = molecular target: Fuc(a1-2)Gal(b1-3)GalNAc(a1-3)[Fuc(a1-2)]Gal(b1-4)Glc
# Outline: as §1
# [4] = molecular target: Fuc(a1-2)Gal(b1-3)GalNAc(a1-3)[Fuc(a1-2)]Gal(b1-4)GlcNAc
# Outline: as §1
# [5] = molecular target: Fuc(a1-2)Gal(b1-3)GalNAc(b1-3)Gal
# Outline: as §1
# [6] = molecular target: Fuc(a1-2)Gal(b1-3)GalNAc(b1-3)Gal(a1-4)Gal(b1-4)Glc
# Outline: as §1
# [7] = molecular target: Fuc(a1-2)Gal(b1-3)GalNAc(b1-4)[Neu5Ac(a2-3)]Gal(b1-4)Glc
# Outline: as §1
# [8] = molecular target: Fuc(a1-2)Gal(b1-3)GlcNAc
# Outline: as §1
# [9] = molecular target: Fuc(a1-2)Gal(b1-3)GlcNAc(b1-2)Man(a1-3)[Fuc(a1-2)Gal(b1-3)GlcNAc(b1-2)Man(a1-6)]Man(b1-4)GlcNAc(b1-4)GlcNAc
# Outline: as §1
# [10] = molecular target: Fuc(a1-2)Gal(b1-3)GlcNAc(b1-2)Man(a1-3)[Fuc(a1-2)Gal(b1-3)GlcNAc(b1-2)Man(a1-6)]Man(b1-4)GlcNAc(b1-4)[Fuc(a1-6)]GlcNAc
# Outline: as §1
# [11] = molecular target: Fuc(a1-2)Gal(b1-3)GlcNAc(b1-3)Gal(b1-4)Glc
# Outline: as §1
# [12] = molecular target: Fuc(a1-2)Gal(b1-3)GlcNAc(b1-3)GalNAc
# Outline: as §1
# [13] = molecular target: Fuc(a1-2)Gal(b1-3)GlcNAc(b1-3)[Fuc(a1-2)Gal(b1-3)GlcNAc(b1-6)]GalNAc
# Outline: as §1
# [14] = molecular target: Fuc(a1-2)Gal(b1-3)GlcNAc(b1-3)[Gal(b1-4)GlcNAc(b1-6)]Gal(b1-4)Glc
# Outline: as §1
# [15] = molecular target: Fuc(a1-2)Gal(b1-3)GlcNAc(b1-3)[Neu5Ac(a2-6)Gal(b1-4)GlcNAc(b1-6)]Gal(b1-4)Glc
# Outline: as §1
# [16] = molecular target: Fuc(a1-2)Gal(b1-3)GlcNAc6S
# Outline: as §1
# [17] = molecular target: Fuc(a1-2)Gal(b1-3)[Fuc(a1-4)]GlcNAc
# Outline: as §1
# [18] = molecular target: Fuc(a1-2)Gal(b1-3)[Fuc(a1-4)]GlcNAc(b1-2)Man(a1-3)[Fuc(a1-2)Gal(b1-3)[Fuc(a1-4)]GlcNAc(b1-2)Man(a1-3)]Man(b1-4)GlcNAc(b1-4)GlcNAc
# Outline: as §1
# [19] = molecular target: Fuc(a1-2)Gal(b1-3)[Fuc(a1-4)]GlcNAc(b1-2)Man(a1-3)[Fuc(a1-2)Gal(b1-3)[Fuc(a1-4)]GlcNAc(b1-2)Man(a1-6)]Man(b1-4)GlcNAc(b1-4)[Fuc(a1-6)]GlcNAc(b1-4)[Fuc(a1-6)]GlcNAc
# Outline: as §1
# [20] = molecular target: Fuc(a1-2)Gal(b1-3)[Fuc(a1-4)]GlcNAc(b1-3)[Fuc(a1-3)[Gal(b1-4)]GlcNAc(b1-6)]Gal(b1-4)Glc
# Outline: as §1
# [21] = molecular target: Fuc(a1-2)Gal(b1-3)[Fuc(a1-4)]GlcNAc(b1-3)[Gal(b1-4)GlcNAc(b1-6)]Gal(b1-4)Glc
# Outline: as §1
# [22] = molecular target: Fuc(a1-2)Gal(b1-4)Fuc(a1-3)]GlcNAc(b1-2)Man(a1-3)[Fuc(a1-2)Gal(b1-4)[Fuc(a1-3)]GlcNAc(b1-2)Man(a1-6)]Man(b1-4)GlcNAc(b1-4)GlcNAc
# Outline: as §1
# [23] = molecular target: Fuc(a1-2)Gal(b1-4)Glc
# Outline: as §1
# [24] = molecular target: Fuc(a1-2)Gal(b1-4)Glc6S
# Outline: as §1
# [25] = molecular target: Fuc(a1-2)Gal(b1-4)GlcNAc
# Outline: as §1
# [26] = molecular target: Fuc(a1-2)Gal(b1-4)GlcNAc(b1-2)Man
# Outline: as §1
# [27] = molecular target: Fuc(a1-2)Gal(b1-4)GlcNAc(b1-2)Man(a1-3)[Fuc(a1-2)Gal(b1-4)GlcNAc(b1-2)Man(a1-6)]Man(b1-4)GlcNAc(b1-4)GlcNAc
# Outline: as §1
# [28] = molecular target: Fuc(a1-2)Gal(b1-4)GlcNAc(b1-2)Man(a1-3)[Fuc(a1-2)Gal(b1-4)GlcNAc(b1-2)Man(a1-6)]Man(b1-4)GlcNAc(b1-4)[Fuc(a1-6)]GlcNAc
# Outline: as §1
# [29] = molecular target: Fuc(a1-2)Gal(b1-4)GlcNAc(b1-2)[Fuc(a1-2)Gal(b1-4)GlcNAc(b1-4)]Man(a1-3)[Fuc(a1-2)Gal(b1-4)GlcNAc(b1-2)Man(a1-6)]Man(b1-4)GlcNAc(b1-4)GlcNAc
# Outline: as §1
# [30] = molecular target: Fuc(a1-2)Gal(b1-4)GlcNAc(b1-3)Gal(b1-4)GlcNAc
# Outline: as §1
binder,measurement,setting,value
"R2-fiber (Pseudomonas aeruginosa), Q9S576 (protein) HHHHHHKVAKDLVVSLAYQVRTEDGVLVDESPVSAPLDYLHGHGSLISGLETALEGHEVGDKFDVAVGANDAYGQYDENLVQRVPKDVFMGVDELQVGMRFLAETDQGPVPVEITAVEDDHVVVDGNHMLAGQNLKFNVEVVAIREATEEELAHGHVHGAHDHHHDHDHDGCCGGHGHDHGHEHGGEGCCGGKGNGGCGCHENLYFQGVTAGMALAATDIPGLDASKLVSGVLAEQRLPVFARGLATAVSNSSDPNTATVPLMLTNHANGPVAGRYFYIQSMFYPDQNGNASQIATSYNATSEMYVRVSYAANPSIREWLPWQRCDIGGSFTKEADGELPGGVNLDSMVTSGWWSQSFTAQAASGANYPIVRAGLLHVYAASSNFIYQTYQAYDGESFYFRCRHSNTWFPWRRMWHGGDFNPSDYLLKSGFYWNALPGKPATFPPSAHNHDVGQLTSGILPLARGGVGSNTAAGARSTIGAGVPATASLGASGWWRDNDTGLIRQWGQVTCPADADASITFPIPFPTLCLGGYANQTSAFHPGTDASTGFRGATTTTAVIRNGYFAQAVLSWEAFGR",glycan array binding signal (z-score),[1],-0.134
same,glycan array binding signal (z-score),[2],0.532
same,glycan array binding signal (z-score),[3],-1
same,glycan array binding signal (z-score),[4],2.11
same,glycan array binding signal (z-score),[5],-0.634
same,glycan array binding signal (z-score),[6],-0.147
same,glycan array binding signal (z-score),[7],0.336
same,glycan array binding signal (z-score),[8],-0.454
same,glycan array binding signal (z-score),[9],0.526
same,glycan array binding signal (z-score),[10],-0.308
same,glycan array binding signal (z-score),[11],-0.316
same,glycan array binding signal (z-score),[12],-0.836
same,glycan array binding signal (z-score),[13],0.948
same,glycan array binding signal (z-score),[14],0.249
same,glycan array binding signal (z-score),[15],0.37
same,glycan array binding signal (z-score),[16],-0.201
same,glycan array binding signal (z-score),[17],-0.102
same,glycan array binding signal (z-score),[18],0.07
same,glycan array binding signal (z-score),[19],-0.029
same,glycan array binding signal (z-score),[20],-0.454
same,glycan array binding signal (z-score),[21],-0.131
same,glycan array binding signal (z-score),[22],-0.559
same,glycan array binding signal (z-score),[23],-0.767
same,glycan array binding signal (z-score),[24],-0.936
same,glycan array binding signal (z-score),[25],0.297
same,glycan array binding signal (z-score),[26],-0.244
same,glycan array binding signal (z-score),[27],1.44
same,glycan array binding signal (z-score),[28],0.532
same,glycan array binding signal (z-score),[29],-0.046
same,glycan array binding signal (z-score),[30],-0.243

# Looked up one by one from the entries so far (two):
binder,measurement,setting,value
"R2-fiber (Pseudomonas aeruginosa), Q9S576 (protein) HHHHHHKVAKDLVVSLAYQVRTEDGVLVDESPVSAPLDYLHGHGSLISGLETALEGHEVGDKFDVAVGANDAYGQYDENLVQRVPKDVFMGVDELQVGMRFLAETDQGPVPVEITAVEDDHVVVDGNHMLAGQNLKFNVEVVAIREATEEELAHGHVHGAHDHHHDHDHDGCCGGHGHDHGHEHGGEGCCGGKGNGGCGCHENLYFQGVTAGMALAATDIPGLDASKLVSGVLAEQRLPVFARGLATAVSNSSDPNTATVPLMLTNHANGPVAGRYFYIQSMFYPDQNGNASQIATSYNATSEMYVRVSYAANPSIREWLPWQRCDIGGSFTKEADGELPGGVNLDSMVTSGWWSQSFTAQAASGANYPIVRAGLLHVYAASSNFIYQTYQAYDGESFYFRCRHSNTWFPWRRMWHGGDFNPSDYLLKSGFYWNALPGKPATFPPSAHNHDVGQLTSGILPLARGGVGSNTAAGARSTIGAGVPATASLGASGWWRDNDTGLIRQWGQVTCPADADASITFPIPFPTLCLGGYANQTSAFHPGTDASTGFRGATTTTAVIRNGYFAQAVLSWEAFGR",glycan array binding signal (z-score),[10],-0.308
same,glycan array binding signal (z-score),[16],-0.201
